Results reported in the supplement of paper PMC10849652.
The list shows a part of the results.

Sequences of proteins named here, by UniProt entry; tags and fusion partners are left off. A change or cut given only in a name is not applied to a line headed by its entry.
UniProt P51991: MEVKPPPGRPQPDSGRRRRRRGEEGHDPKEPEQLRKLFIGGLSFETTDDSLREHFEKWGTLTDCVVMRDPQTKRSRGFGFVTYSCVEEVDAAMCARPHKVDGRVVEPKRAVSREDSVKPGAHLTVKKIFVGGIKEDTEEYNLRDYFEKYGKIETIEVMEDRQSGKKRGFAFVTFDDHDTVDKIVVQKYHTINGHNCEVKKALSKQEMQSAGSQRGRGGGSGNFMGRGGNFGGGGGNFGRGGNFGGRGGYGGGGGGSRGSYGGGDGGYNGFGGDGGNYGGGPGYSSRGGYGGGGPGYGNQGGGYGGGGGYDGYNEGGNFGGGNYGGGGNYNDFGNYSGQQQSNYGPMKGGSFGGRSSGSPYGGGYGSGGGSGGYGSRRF
UniProt P41252: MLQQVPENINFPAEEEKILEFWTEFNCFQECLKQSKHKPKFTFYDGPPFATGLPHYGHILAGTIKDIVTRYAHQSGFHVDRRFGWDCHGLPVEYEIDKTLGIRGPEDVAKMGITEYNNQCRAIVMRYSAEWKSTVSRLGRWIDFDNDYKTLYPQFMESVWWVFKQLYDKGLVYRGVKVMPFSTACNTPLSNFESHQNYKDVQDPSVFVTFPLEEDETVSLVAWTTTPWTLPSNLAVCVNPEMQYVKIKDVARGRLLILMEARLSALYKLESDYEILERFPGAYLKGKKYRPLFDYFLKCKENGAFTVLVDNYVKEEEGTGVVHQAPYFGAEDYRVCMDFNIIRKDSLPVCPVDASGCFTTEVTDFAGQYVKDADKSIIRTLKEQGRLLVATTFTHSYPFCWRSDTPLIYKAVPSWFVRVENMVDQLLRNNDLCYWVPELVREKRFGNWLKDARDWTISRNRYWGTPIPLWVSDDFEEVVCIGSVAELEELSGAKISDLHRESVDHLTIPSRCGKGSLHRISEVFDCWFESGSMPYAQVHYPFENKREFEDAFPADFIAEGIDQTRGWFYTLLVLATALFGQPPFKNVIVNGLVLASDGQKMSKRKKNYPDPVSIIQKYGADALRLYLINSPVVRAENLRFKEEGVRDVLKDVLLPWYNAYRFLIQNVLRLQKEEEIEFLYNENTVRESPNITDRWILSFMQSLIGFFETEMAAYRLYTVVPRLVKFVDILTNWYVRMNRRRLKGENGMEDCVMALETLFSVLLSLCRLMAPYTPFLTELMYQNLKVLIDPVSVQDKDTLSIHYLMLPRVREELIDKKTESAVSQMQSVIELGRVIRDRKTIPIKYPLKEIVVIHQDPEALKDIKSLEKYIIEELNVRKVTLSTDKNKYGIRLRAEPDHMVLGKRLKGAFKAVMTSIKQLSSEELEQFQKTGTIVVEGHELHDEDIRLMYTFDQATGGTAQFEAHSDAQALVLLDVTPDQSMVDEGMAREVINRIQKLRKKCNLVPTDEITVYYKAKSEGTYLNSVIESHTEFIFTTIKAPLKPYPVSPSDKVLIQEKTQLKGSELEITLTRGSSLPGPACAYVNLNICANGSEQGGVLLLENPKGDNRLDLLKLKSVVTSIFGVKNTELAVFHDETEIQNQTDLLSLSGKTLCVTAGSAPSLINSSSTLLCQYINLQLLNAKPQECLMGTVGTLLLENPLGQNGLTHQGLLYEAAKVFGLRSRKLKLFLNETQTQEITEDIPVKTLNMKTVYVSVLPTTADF
UniProt P34932: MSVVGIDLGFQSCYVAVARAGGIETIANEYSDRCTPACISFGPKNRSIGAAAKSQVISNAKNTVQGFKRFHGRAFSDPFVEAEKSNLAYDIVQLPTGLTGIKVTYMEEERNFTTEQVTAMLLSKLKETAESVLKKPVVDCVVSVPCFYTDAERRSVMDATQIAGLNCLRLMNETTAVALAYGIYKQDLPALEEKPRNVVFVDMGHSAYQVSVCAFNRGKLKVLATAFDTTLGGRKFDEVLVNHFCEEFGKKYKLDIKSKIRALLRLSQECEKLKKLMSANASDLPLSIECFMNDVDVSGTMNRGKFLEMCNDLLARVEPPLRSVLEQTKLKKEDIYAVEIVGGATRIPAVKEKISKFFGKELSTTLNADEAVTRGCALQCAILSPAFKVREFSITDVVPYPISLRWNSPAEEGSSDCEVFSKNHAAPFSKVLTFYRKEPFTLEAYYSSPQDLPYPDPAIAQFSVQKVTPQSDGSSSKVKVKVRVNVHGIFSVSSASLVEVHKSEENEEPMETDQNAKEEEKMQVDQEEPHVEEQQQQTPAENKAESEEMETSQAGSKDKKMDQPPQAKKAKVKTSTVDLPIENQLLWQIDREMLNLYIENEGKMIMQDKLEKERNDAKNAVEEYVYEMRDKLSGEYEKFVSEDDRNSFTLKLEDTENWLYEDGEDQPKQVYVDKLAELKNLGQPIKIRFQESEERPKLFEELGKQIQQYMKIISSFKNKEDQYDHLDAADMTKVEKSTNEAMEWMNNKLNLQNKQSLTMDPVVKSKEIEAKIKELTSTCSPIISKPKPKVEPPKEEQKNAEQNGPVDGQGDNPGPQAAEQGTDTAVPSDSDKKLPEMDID
UniProt P52272: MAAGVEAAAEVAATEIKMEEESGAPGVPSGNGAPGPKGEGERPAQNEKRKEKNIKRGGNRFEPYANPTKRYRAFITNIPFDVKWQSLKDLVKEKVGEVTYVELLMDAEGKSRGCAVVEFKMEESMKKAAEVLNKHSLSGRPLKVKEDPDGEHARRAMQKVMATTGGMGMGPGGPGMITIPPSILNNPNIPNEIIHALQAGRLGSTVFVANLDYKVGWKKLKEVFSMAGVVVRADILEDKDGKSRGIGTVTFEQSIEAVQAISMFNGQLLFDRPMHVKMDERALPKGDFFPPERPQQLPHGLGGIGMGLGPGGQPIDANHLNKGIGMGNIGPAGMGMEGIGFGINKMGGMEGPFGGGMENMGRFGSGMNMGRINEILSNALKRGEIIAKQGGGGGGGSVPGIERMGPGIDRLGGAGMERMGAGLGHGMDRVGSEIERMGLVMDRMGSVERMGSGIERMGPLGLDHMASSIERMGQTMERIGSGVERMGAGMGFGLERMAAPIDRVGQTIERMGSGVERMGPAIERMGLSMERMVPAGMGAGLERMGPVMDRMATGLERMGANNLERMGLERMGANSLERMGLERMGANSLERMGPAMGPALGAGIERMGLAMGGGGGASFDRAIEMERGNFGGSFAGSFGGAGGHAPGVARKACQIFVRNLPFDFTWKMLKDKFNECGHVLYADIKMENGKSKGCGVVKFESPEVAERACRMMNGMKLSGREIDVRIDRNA
UniProt P11021: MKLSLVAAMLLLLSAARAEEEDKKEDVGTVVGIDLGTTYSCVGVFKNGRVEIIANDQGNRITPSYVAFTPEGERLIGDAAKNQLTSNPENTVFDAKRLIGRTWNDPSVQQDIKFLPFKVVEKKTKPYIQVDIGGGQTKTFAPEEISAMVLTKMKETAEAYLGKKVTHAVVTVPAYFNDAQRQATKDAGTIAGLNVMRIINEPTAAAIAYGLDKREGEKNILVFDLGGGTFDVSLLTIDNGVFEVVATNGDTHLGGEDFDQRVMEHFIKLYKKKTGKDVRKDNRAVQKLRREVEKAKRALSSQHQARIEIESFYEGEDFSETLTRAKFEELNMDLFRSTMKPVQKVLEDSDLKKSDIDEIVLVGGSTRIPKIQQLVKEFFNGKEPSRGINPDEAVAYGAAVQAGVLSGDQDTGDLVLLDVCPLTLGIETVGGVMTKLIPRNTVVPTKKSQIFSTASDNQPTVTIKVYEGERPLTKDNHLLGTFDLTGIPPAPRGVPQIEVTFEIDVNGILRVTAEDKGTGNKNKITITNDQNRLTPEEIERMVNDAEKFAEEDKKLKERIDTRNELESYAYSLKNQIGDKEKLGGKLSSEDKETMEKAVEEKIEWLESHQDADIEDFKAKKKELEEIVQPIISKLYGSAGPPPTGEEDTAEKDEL
UniProt P00492: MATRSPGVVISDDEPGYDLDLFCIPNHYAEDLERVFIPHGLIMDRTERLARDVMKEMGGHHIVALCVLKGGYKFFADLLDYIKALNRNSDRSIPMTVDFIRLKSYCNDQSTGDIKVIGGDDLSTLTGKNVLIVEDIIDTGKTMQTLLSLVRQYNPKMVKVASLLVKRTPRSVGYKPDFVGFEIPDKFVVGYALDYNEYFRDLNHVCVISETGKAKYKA
UniProt Q8WVV9: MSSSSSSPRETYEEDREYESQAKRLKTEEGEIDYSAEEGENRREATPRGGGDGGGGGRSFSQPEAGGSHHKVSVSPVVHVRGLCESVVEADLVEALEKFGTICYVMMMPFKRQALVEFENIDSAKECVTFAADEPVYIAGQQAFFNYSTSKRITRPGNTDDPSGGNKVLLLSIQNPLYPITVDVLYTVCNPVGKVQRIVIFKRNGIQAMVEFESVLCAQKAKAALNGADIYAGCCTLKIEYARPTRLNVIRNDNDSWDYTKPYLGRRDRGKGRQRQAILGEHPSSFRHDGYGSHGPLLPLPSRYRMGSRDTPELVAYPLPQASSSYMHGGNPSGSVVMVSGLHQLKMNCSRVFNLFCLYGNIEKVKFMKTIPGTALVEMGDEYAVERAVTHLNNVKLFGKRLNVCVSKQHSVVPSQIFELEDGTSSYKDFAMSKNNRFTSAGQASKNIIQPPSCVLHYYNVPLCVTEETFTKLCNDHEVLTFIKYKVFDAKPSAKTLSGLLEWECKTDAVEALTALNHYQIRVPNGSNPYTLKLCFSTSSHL
UniProt Q7LGA3: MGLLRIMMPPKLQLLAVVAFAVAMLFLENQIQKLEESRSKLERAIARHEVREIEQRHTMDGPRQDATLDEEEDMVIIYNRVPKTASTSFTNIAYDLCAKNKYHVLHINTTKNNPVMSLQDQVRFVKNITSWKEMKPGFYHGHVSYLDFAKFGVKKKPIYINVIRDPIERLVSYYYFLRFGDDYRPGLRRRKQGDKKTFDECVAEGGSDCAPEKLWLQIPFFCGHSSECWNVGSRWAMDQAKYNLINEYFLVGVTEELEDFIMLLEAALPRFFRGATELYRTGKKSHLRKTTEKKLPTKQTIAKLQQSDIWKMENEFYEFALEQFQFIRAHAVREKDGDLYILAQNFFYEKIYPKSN
UniProt P08238, whole entry, looked up: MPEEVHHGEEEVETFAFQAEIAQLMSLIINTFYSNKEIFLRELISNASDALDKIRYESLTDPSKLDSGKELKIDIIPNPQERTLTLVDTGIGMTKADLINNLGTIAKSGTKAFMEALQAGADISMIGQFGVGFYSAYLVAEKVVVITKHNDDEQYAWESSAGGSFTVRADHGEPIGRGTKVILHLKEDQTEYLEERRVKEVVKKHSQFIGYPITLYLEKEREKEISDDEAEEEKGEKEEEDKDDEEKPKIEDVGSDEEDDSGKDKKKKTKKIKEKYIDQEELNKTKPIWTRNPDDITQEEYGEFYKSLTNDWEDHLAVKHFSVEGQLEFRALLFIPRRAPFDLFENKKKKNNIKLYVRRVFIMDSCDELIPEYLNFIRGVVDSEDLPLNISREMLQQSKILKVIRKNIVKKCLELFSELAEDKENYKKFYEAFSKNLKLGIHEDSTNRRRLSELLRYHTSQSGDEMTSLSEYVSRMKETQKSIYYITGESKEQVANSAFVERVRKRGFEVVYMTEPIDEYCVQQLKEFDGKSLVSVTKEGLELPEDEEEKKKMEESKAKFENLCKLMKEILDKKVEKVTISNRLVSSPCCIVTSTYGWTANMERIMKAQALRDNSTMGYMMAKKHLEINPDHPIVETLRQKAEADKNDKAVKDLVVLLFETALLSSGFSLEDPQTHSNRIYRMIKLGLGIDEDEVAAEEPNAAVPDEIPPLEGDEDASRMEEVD
UniProt P14625, whole entry, looked up: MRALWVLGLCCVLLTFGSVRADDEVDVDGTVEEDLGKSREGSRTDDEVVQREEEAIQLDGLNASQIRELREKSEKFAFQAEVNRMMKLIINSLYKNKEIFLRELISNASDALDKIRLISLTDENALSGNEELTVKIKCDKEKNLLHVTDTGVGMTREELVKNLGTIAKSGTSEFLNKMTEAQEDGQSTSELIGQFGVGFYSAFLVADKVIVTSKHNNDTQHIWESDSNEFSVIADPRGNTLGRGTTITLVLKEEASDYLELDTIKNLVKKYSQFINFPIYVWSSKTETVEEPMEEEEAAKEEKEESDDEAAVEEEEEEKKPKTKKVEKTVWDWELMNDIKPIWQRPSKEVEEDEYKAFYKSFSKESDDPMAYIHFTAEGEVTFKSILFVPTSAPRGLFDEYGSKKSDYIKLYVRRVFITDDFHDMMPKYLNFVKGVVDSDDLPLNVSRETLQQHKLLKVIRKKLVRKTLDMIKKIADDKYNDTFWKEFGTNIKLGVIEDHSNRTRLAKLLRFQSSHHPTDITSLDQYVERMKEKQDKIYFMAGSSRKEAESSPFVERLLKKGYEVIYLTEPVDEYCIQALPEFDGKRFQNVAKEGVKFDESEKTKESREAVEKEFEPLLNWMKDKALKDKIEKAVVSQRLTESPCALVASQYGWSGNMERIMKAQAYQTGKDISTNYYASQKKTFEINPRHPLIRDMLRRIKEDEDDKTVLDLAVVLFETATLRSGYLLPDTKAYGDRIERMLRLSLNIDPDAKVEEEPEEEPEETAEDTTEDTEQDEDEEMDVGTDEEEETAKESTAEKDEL

Columns and labels:
Experiment in all cases: log2 fold change, soluble protein after heating vs DMSO (PISA); higher = thermal stabilisation; K562 cells, 10 uM, 30 min; active = over 0.2 and 3.5 SD of the protein, either way, in both replicates (recomputed)
[1] = compound: CC1=C(C=C(C=C1)NC(=O)C2=CC(=CC=C2)C(C)(C)C#N)NC3=CC4=C(C=C3)N=CN(C4=O)C
Method in brief: (§1)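 K562 cells (2×10^6 cells/mL) were treated with 10 μM compound for 30 min, and aliquots were heated for 3 min over 48°C-58°C. Pooled aliquots were extracted in PBS with 0.5% NP-40 at 4°C, and the supernatant after 21,000xg for 90 min was measured by TMTpro 16plex LC-MS/MS with channel sums equalised. Reported thermal stability, relative to control samples and from duplicates, is a log2 fold change.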

[2] = compound: CC1=C(C=C(C=C1)NC(=O)C2=CC(=CC=C2)N(C)C)NC(=O)C3=CC=C(C=C3)O
Method in brief: as §1

[3] = compound: CC1=CC=C(C=C1)SC2=C3C=C(SC3=CN=C2)C(=O)N
Method in brief: as §1

[4] = compound: CC1=NC(=CC=C1)C2=C(N=C(N2)C(C)(C)C)C3=CC4=NC=CN=C4C=C3
Method in brief: as §1

Nexturastat A = compound: CCCCN(Cc1ccc(C(=O)NO)cc1)C(=O)Nc1ccccc1 [Nexturastat A]
Method in brief: as §1

vemurafenib = compound: CCCS(=O)(=O)Nc1ccc(F)c(C(=O)c2c[nH]c3ncc(-c4ccc(Cl)cc4)cc23)c1F [vemurafenib]
Method in brief: as §1

[5] = compound: CCCS(=O)(=O)Nc1ccc(F)c(C(=O)c2c[nH]c3ncc(Cl)cc23)c1F
Method in brief: as §1

[6] = compound: CCCc1cc(C)[nH]c(=O)c1CNC(=O)c1cc(-c2ccnc(N3CCN(C)CC3)c2)cc2c1cnn2C(C)C
Method in brief: as §1

givinostat = compound: CCN(CC)Cc1ccc2cc(COC(=O)Nc3ccc(C(=O)NO)cc3)ccc2c1 [givinostat]
Method in brief: as §1

barasertib = compound: CCN(CCCOc1ccc2c(Nc3cc(CC(=O)Nc4cccc(F)c4)[nH]n3)ncnc2c1)CCOP(=O)(O)O [barasertib]
Method in brief: as §1

[7] = compound: CC[C@@H]1C(=O)N(C)c2cnc(Nc3ccc(C(=O)NC4CCN(C)CC4)cc3OC)nc2N1C1CCCC1
Method in brief: as §1

volasertib = compound: CC[C@@H]1C(=O)N(C)c2cnc(Nc3ccc(C(=O)N[C@H]4CC[C@H](N5CCN(CC6CC6)CC5)CC4)cc3OC)nc2N1C(C)C [volasertib]
Method in brief: as §1

[8] = compound: CC[C@H](C)N1C=C(C2=C(C=C(C=C21)C3=CN=C(C=C3)N4CCNCC4)C(=O)NCC5=C(C=C(NC5=O)C)C)C
Method in brief: as §1

epoxomicin = compound: CC[C@H](C)[C@@H](C(=O)N[C@@H]([C@@H](C)O)C(=O)N[C@@H](CC(C)C)C(=O)[C@]1(CO1)C)NC(=O)[C@H]([C@@H](C)CC)N(C)C(=O)C [epoxomicin]
Method in brief: as §1

[9] = compound: CCn1c(C(=O)N(C2CC2)C2CC2)cc2c3c(ncn3C)c(Nc3cc(C)n(C)n3)nc21
Method in brief: as §1

[10] = compound: CCn1cc(-c2ccnc3[nH]c(-c4cccc(CN(C)C)c4)cc23)c(-c2ccc(NC(=O)N(C)C)cc2)n1
Method in brief: as §1

[11] = compound: CN(C)CC(=O)Nc1ccc2[nH]c(=O)c3ccccc3c2c1
Method in brief: as §1

rosiglitazone = compound: CN(CCOC1=CC=C(C=C1)C[C@H]2C(=O)NC(=O)S2)C3=CC=CC=N3 (racemic) [rosiglitazone]
Method in brief: as §1

[12] = compound: CN1C2=C(C3=C1C(=O)N(N=C3)CC4=CC(=CC=C4)N)SC(=C2)S(=O)C
Method in brief: as §1

[13] = compound: CN1CCC(CNc2ccc3ncc(-c4cccc(OC(F)(F)F)c4)n3n2)CC1
Method in brief: as §1

Measured: log2 fold change

HSPB1 (UniProt P04792)
inactive: [1] -0.04 | [2] 0 | [3] -0.001 | [4] -0.03 | Nexturastat A 0.063 | vemurafenib 0.031 | [5] 0.014 | [6] 0.039 | givinostat 0.031 | barasertib 0.028 | [7] 0.023 | volasertib -0.064 | [8] 0.028 | epoxomicin -0.049 | [9] 0.016 | [10] 0.012 | [11] -0.005 | rosiglitazone 0.016 | [12] 0.096 | [13] 0.019

HMGA1 (UniProt P17096)
inactive: [1] 0.024 | [2] 0.047 | [3] -0.111 | [4] -0.029 | Nexturastat A 0.104 | vemurafenib -0.007 | [5] -0.097 | [6] 0.017 | givinostat -0.05 | barasertib -0.029 | [7] 0.093 | volasertib 0.208 | [8] -0.032 | epoxomicin -0.073 | [9] 0.059 | [10] 0.072 | [11] -0.066 | rosiglitazone -0.027 | [12] 0.114 | [13] 0.091

HNRNPA3 (UniProt P51991)
inactive: [1] 0.025 | [2] 0.021 | [3] -0.117 | [4] -0.058 | Nexturastat A 0.153 | vemurafenib 0 | [5] -0.031 | [6] 0.127 | givinostat -0.029 | barasertib -0.198 | [7] 0.22 | volasertib 0.094 | [8] 0.02 | epoxomicin -0.38 | [9] -0.066 | [10] 0.113 | [11] -0.127 | rosiglitazone -0.204 | [12] 0.232 | [13] 0.346

HNRNPD isoform 4 (UniProt Q14103)
inactive: [1] 0.01 | [2] 0.043 | [3] -0.108 | [4] 0.009 | Nexturastat A 0.163 | vemurafenib 0.031 | [5] -0.069 | [6] 0.038 | givinostat -0.022 | barasertib -0.094 | [7] 0.192 | volasertib 0.154 | [8] -0.061 | epoxomicin -0.192 | [9] 0 | [10] 0.14 | [11] -0.072 | rosiglitazone -0.05 | [12] 0.31 | [13] 0.222

IARS (UniProt P41252)
inactive: [1] 0.047 | [2] 0.037 | [3] 0.001 | [4] -0.049 | Nexturastat A 0.382 | vemurafenib -0.03 | [5] 0.028 | [6] 0.115 | givinostat 0.134 | barasertib 0.015 | [7] 0.106 | volasertib 0.025 | [8] 0.059 | epoxomicin -0.256 | [9] -0.056 | [10] 0.156 | [11] -0.007 | rosiglitazone -0.033 | [12] 0.334 | [13] 0.022

HMBS (UniProt P08397)
inactive: [1] -0.01 | [2] -0.002 | [3] 0.055 | [4] 0.056 | Nexturastat A -0.082 | vemurafenib 0.026 | [5] 0.008 | [6] -0.019 | givinostat -0.042 | barasertib -0.011 | [7] 0.002 | volasertib 0.054 | [8] -0.014 | epoxomicin 0.012 | [9] 0.026 | [10] 0.008 | [11] -0.001 | rosiglitazone -0.008 | [12] -0.024 | [13] -0.072

Taken from the results shown (3 entries):
HNRNPD isoform 4 (UniProt Q14103)
inactive: [1] 0.01 | [2] 0.043 | [3] -0.108 | [4] 0.009 | Nexturastat A 0.163 | vemurafenib 0.031 | [5] -0.069 | [6] 0.038 | givinostat -0.022 | barasertib -0.094 | [7] 0.192 | volasertib 0.154 | [8] -0.061 | epoxomicin -0.192 | [9] 0 | [10] 0.14 | [11] -0.072 | rosiglitazone -0.05 | [12] 0.31 | [13] 0.222

IARS (UniProt P41252)
inactive: [1] 0.047 | [2] 0.037 | [3] 0.001 | [4] -0.049 | Nexturastat A 0.382 | vemurafenib -0.03 | [5] 0.028 | [6] 0.115 | givinostat 0.134 | barasertib 0.015 | [7] 0.106 | volasertib 0.025 | [8] 0.059 | epoxomicin -0.256 | [9] -0.056 | [10] 0.156 | [11] -0.007 | rosiglitazone -0.033 | [12] 0.334 | [13] 0.022

HMBS (UniProt P08397)
inactive: [1] -0.01 | [2] -0.002 | [3] 0.055 | [4] 0.056 | Nexturastat A -0.082 | vemurafenib 0.026 | [5] 0.008 | [6] -0.019 | givinostat -0.042 | barasertib -0.011 | [7] 0.002 | volasertib 0.054 | [8] -0.014 | epoxomicin 0.012 | [9] 0.026 | [10] 0.008 | [11] -0.001 | rosiglitazone -0.008 | [12] -0.024 | [13] -0.072

More results:

HSPA4 (UniProt P34932)
inactive: [1] 0.02 | [2] -0.005 | [3] -0.017 | [4] 0.024 | Nexturastat A -0.045 | vemurafenib 0.007 | [5] 0.009 | [6] -0.006 | givinostat -0.047 | barasertib 0.019 | [7] -0.031 | volasertib -0.022 | [8] 0.032 | epoxomicin 0.035 | [9] 0.024 | [10] -0.035 | [11] -0.019 | rosiglitazone 0.015 | [12] -0.076 | [13] 0.011

HNRNPM (UniProt P52272)
inactive: [1] 0.007 | [2] -0.053 | [3] -0.047 | [4] -0.045 | Nexturastat A 0.253 | vemurafenib 0.039 | [5] 0.077 | [6] 0.078 | givinostat 0.225 | barasertib 0.044 | [7] -0.099 | volasertib -0.289 | [8] 0.105 | epoxomicin -0.153 | [9] -0.138 | [10] 0.193 | [11] -0.023 | rosiglitazone -0.121 | [12] 0.268 | [13] 0.071

HSPA5 (UniProt P11021)
inactive: [1] 0.006 | [2] -0.005 | [3] -0.016 | [4] 0.001 | Nexturastat A -0.102 | vemurafenib 0.002 | [5] -0.011 | [6] 0.038 | givinostat -0.018 | barasertib 0.037 | [7] -0.038 | volasertib 0.078 | [8] -0.069 | epoxomicin -0.002 | [9] 0.025 | [10] 0.038 | [11] -0.024 | rosiglitazone 0.004 | [12] -0.015 | [13] 0.051

HPRT1 (UniProt P00492)
inactive: [1] 0.015 | [2] 0.026 | [3] 0.026 | [4] 0.007 | Nexturastat A -0.087 | vemurafenib 0.026 | [5] 0.029 | [6] -0.018 | givinostat -0.174 | barasertib -0.027 | [7] 0.014 | volasertib 0.063 | [8] -0.016 | epoxomicin 0.016 | [9] -0.03 | [10] -0.038 | [11] 0.001 | rosiglitazone 0.004 | [12] -0.034 | [13] 0.015

HNRNPLL (UniProt Q8WVV9)
inactive: [1] 0.158 | [2] -0.093 | [3] -0.01 | [4] 0.099 | Nexturastat A 0.028 | vemurafenib 0.051 | [5] 0.127 | [6] 0.01 | givinostat 0.143 | barasertib 0.063 | [7] -0.128 | volasertib -0.346 | [8] 0.118 | epoxomicin -0.088 | [9] -0.081 | [10] -0.033 | [11] 0.211 | rosiglitazone 0.074 | [12] -0.031 | [13] -0.169

HS2ST1 (UniProt Q7LGA3)
inactive: [1] -0.048 | [2] 0.103 | [3] -0.048 | [4] -0.042 | Nexturastat A 0.063 | vemurafenib -0.022 | [5] -0.02 | [6] 0.014 | givinostat -0.058 | barasertib 0.02 | [7] 0.04 | volasertib 0.006 | [8] -0.006 | epoxomicin -0.097 | [9] 0.027 | [10] -0.049 | [11] -0.054 | rosiglitazone -0.027 | [12] 0.032 | [13] -0.006

HSP90AB1 (UniProt P08238)
inactive: [1] 0.031 | [2] -0.013 | [3] 0.013 | [4] 0.017 | Nexturastat A 0.007 | vemurafenib 0.022 | [5] 0.049 | [6] 0.056 | givinostat -0.04 | barasertib 0.006 | [7] -0.115 | volasertib -0.057 | [8] 0.065 | epoxomicin 0.037 | [9] 0 | [10] -0.059 | [11] 0.003 | rosiglitazone 0.008 | [12] -0.065 | [13] 0.09

HSP90B1 (UniProt P14625)
inactive: [1] -0.029 | [2] -0.001 | [3] 0.007 | [4] -0.004 | Nexturastat A -0.039 | vemurafenib 0.006 | [5] -0.006 | [6] 0.084 | givinostat -0.008 | barasertib 0.006 | [7] -0.035 | volasertib -0.022 | [8] 0.021 | epoxomicin 0.008 | [9] 0.021 | [10] 0.015 | [11] -0.017 | rosiglitazone 0.007 | [12] -0.018 | [13] 0.042

HMGN4 (UniProt O00479)
inactive: [1] 0.226 | [2] -0.001 | [3] 0.189 | [4] -0.104 | Nexturastat A -0.119 | vemurafenib -0.011 | [5] 0.299 | [6] 0.797 | givinostat -0.112 | barasertib -0.272 | [7] -0.062 | volasertib 0.16 | [8] 0.392 | epoxomicin 0.583 | [9] 0.023 | [10] -0.293 | [11] -0.028 | rosiglitazone -0.392 | [12] 0.505 | [13] 0.268

HGS (UniProt O14964)
inactive: [1] 0.014 | [2] -0.009 | [3] 0.008 | [4] 0.022 | Nexturastat A -0.045 | vemurafenib 0.01 | [5] 0.033 | [6] -0.032 | givinostat -0.011 | barasertib 0.018 | [7] -0.08 | volasertib -0.194 | [8] 0.042 | epoxomicin 0.008 | [9] 0.01 | [10] -0.008 | [11] 0.03 | rosiglitazone 0.01 | [12] -0.027 | [13] -0.078
